# Measurements from PubChem BioAssay AID2685 (National Center for Advancing Translational Sciences (NCATS), 2010).
# This is one part of the list. The main result of the screen is listed elsewhere. These columns were measured beside it and carry no call. Most of these compounds were active or inconclusive in the main read-out, so they are no random draw. The note in brackets gives the kind of curve behind each potency; many fits are weak.
# Assay: qHTS Assay for Lipid Storage Modulators in Drosophila S3 Cells;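 for cell number change: cells counted by Cell Tracker Red CMTPX staining in the red channel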
# Conditions: BODIPY lipid droplet fluorescence, 18-24 h; for cell number change: measured here: cell count max response, cells fed with added oleic acid
# Outline: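 Drosophila S3 cells loaded with oleic acid (400 uM, as added) and compounds at several concentrations; lipid droplets imaged by 488-nm laser-scanning cytometry, 500–530 nm intensity and object ratio to cell channel. Percent activity normalized to 20 uM Triacsin C.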
# [1] = measured here: cell number channel AC50, cells fed with added oleic acid
# [2] = measured here: lipid fluorescence (Fed channel) AC50, cells fed with added oleic acid
Compound,cell number change [%],AC50 [1],AC50 [2]
Cn1c(CO)cnc1SCC(=O)c1ccc(Cl)cc1,-21.9,–,–
Cc1ccc(C)c(NC(=S)N(C)CCc2ccccn2)c1,-40.8,"0.116 µM [falling, full curve, poor fit]","18.4 µM [falling, single point]"
CC(=O)CCC(=O)NC1CCCc2c1cnn2-c1ccc(C(C)(C)C)cc1 (stereo unspecified),–,–,"11.6 µM [falling, partial curve, poor fit]"
CCCN1CCN(CCCNC(=O)CN2C(=O)c3cccnc3Oc3ccc(C)cc32)CC1,23.7,–,–
O=C(c1ccco1)n1nc(-c2ccc(Cl)cc2)nc1NCc1ccco1,0.0174,–,"29.1 µM [rising, partial curve]"
O=c1c2[nH]cnc2n(-c2cccc(F)c2)c(=O)n1Cc1ccccc1,-5.56,–,–
Cc1cc2nccc(-c3ccccn3)n2n1,–,"0.092 µM [rising, full curve, poor fit]","0.146 µM [rising, full curve, poor fit]"
Cc1scc(C(=O)Nn2cnnc2)c1-c1ccccc1,2.84,–,"0.731 µM [falling, full curve, poor fit]"
COc1ccc(CC(O)COS(N)(=O)=O)cc1 (stereo unspecified),19.7,–,"7.31 µM [rising, partial curve]"
Cc1cc(OCC(=O)Nc2ccc(S(=O)(=O)N3CCN(C)CC3)cc2)ccc1Br,11.6,–,–
CCOC(=O)c1c(C2CC2)csc1NC(C)=O,–,"0.291 µM [rising, partial curve, poor fit]",–
COc1ccccc1C(=O)N1CCNC(=O)C1CC(=O)Nc1ccc(Cl)cc1 (stereo unspecified),–,–,"0.184 µM [falling, full curve, poor fit]"
Cc1ccccc1-c1nc(CS(=O)(=O)CC(=O)NCc2ccccc2)c(C)o1,66.9,"4.61 µM [rising, partial curve]","1.84 µM [rising, full curve]"
CCOC(=O)c1ccc(NC(=O)CSc2nnc(COc3ccccc3)n2C)cc1,-3.91,–,–
CCOc1ccccc1NC(=O)C(=O)CC(=O)c1cccc(OC)c1,-17.7,–,"0.116 µM [falling, full curve, poor fit]"
COCCN1C(=O)C(CC(=O)Nc2ccccc2)SC1=Nc1ccc(OC)cc1 (stereo unspecified),18.6,"1.64 µM [rising, partial curve]","2.59 µM [rising, partial curve]"
CCOc1ccc2nc(SCC(=O)N3c4ccccc4Sc4ccccc43)c(C#N)cc2c1,25.2,–,"11.6 µM [rising, partial curve]"
O=C(O)Cc1ccc(OCc2ccc(Cl)nc2)cc1,3.08,"0.00517 µM [rising, full curve, poor fit]","0.00651 µM [rising, full curve, poor fit]"
COCc1cc(C)nc(SCc2ccc([N+](=O)[O-])cc2)c1C#N,-28.8,–,–
O=C(CSc1ncnc2c1oc1ccccc12)c1cccs1,166,"18.4 µM [rising, single point]",–

Compound,cell number change [%],AC50 [1],AC50 [2]
CC1(C)CC(CCC(=O)Nc2ccc(S(N)(=O)=O)cc2)C(=O)O1 (stereo unspecified),33.9,"7.31 µM [rising, partial curve]",–
Cc1ccc2nsnc2c1NC(=S)NC(=O)c1ccco1,–,"0.00461 µM [falling, full curve, poor fit]","1.84 µM [falling, single point]"
CNC(=S)N(CCc1c(C)[nH]c2ccc(C)cc12)Cc1ccco1,17,–,"2.31 µM [rising, full curve, poor fit]"
N#Cc1cn(N2CCCCC2)c(=O)[nH]c1=O,-41.3,"23.1 µM [falling, single point]","29.1 µM [falling, single point]"
CCc1cc2ccccc2nc1SCC(=O)NC1CCCC1,13,–,"1.03 µM [falling, single point]"
Cc1cc(C)c(C(=O)NC2CCCc3c2cnn3-c2cccc(C)c2C)o1 (stereo unspecified),-33.1,"0.00461 µM [falling, full curve]","0.0291 µM [falling, full curve]"
Cc1ccc(-n2c(-c3cccc(C)c3)n[nH]c2=S)cc1,24,–,–
COc1ccc(OC)c(S(=O)(=O)N2CCN(Cc3ccccc3)CC2)c1,29.1,–,"25.9 µM [rising, partial curve, poor fit]"
Cc1c(NC(=O)CS(=O)(=O)c2ccccc2)c(=O)n(-c2ccccc2)n1C,148,–,–
O=C(Nc1ccc(O)cc1)/C(=C\C=C\c1ccccc1)NC(=O)c1ccccc1,0.875,–,"7.31 µM [falling, single point]"
O=S(=O)(c1cnc(Cl)c(Br)c1)N1CCCCCC1,-16.4,–,"29.1 µM [falling, partial curve, poor fit]"
COCCCn1c(C2CCCCC2)nc2oc3cc(OC)ccc3c(=O)c2c1=O,1.58,–,"3.26 µM [rising, single point]"
CCNC(=O)C1CC(=O)N(c2ccc(OCC)cc2)C1 (stereo unspecified),10.8,–,"0.164 µM [rising, full curve, poor fit]"
Cc1cc(C)n2nc(SCc3ccccc3F)nc2n1,11.2,–,"2.91 µM [rising, partial curve, poor fit]"
CCCCNS(=O)(=O)c1cc(-c2nn(C)c(=O)c3ccccc23)ccc1C,-14.2,–,–
CCc1ccc(-c2cc(C)no2)cc1S(=O)(=O)Nc1ccc(C)cn1,3.54,–,"6.51 µM [rising, single point]"
CC(=O)Nc1cccn(Cc2c(Cl)cccc2Cl)c1=O,54.7,–,"0.092 µM [falling, full curve]"
CCn1cc(C(=O)O)c(=O)c2cc(F)c(N3CCN(C(=S)NC(=O)c4ccccc4Cl)CC3)cc21,58.2,"29.1 µM [rising, single point]",–
C/C(CCc1ccco1)=N\NC(=O)CNc1cccc2ccccc12,41.2,"25.9 µM [rising, partial curve, poor fit]",–
Cc1cc2c(cc(C(=O)OCC(=O)NCc3cccs3)n2C(C)C)o1,30.5,–,"6.51 µM [falling, single point]"

Compound,cell number change [%],AC50 [1],AC50 [2]
CSc1ccc(CCNC(=O)CCc2nnc3ccc(N4CCCCC4)nn23)cc1,-0.898,–,"29.1 µM [falling, single point]"
Cc1ccc(C)n1-c1cccc(C(=O)Nc2ccccc2)c1,–,"6.51 µM [rising, single point]",–
COC(=O)[C@H](CC(C)C)NC(=O)c1cc2c(cn1)[nH]c1ccccc12,16.3,–,–
Cc1ccc2cccc(OCc3ccc(Br)cc3)c2n1,76.1,"4.61 µM [rising, full curve, poor fit]","5.17 µM [rising, full curve]"
CC(=O)Nc1ccc(Nc2nc(C)nc3c2nnn3Cc2ccccc2Cl)cc1,9.47,–,"6.51 µM [falling, partial curve, poor fit]"
Cc1ccc(Nc2nc(C)cc(C)c2C(N)=O)c(C)c1,-22.1,–,"29.1 µM [rising, single point]"
CC(OC(=O)CN1C(=O)c2ccccc2C1=O)C(=O)c1ccccc1 (stereo unspecified),-0.825,–,"29.1 µM [falling, single point]"
COc1cccc(C(=O)O/N=C2\CCS(=O)(=O)c3sccc32)c1,-13.2,"3.26 µM [falling, single point]","25.9 µM [falling, single point]"
COc1ccc(-n2c(SCC#N)nnc2-c2ccc(NS(=O)(=O)c3ccc(C)cc3)cc2)cc1,-35,"0.58 µM [falling, partial curve, poor fit]","4.11 µM [falling, full curve, poor fit]"
Cc1nc(C)c(-c2csc(NCCc3ccccc3)n2)s1,-13.2,–,"23.1 µM [falling, single point]"
Cc1ccc(NS(=O)(=O)c2cccc(C(=O)NCCCn3ccnc3)c2)cc1,-75,"18.4 µM [falling, single point]",–
C=CCc1ccc(OCCCOc2ccc(C)c(C)c2)c(OC)c1,54.1,"18.4 µM [rising, single point]",–
CC(=O)N1c2ccc(S(=O)(=O)NCCC(=O)Nc3cccc(Cl)c3)cc2CC1C (stereo unspecified),-31.1,"18.4 µM [falling, single point]","6.51 µM [falling, single point]"
OC(CNCCc1ccc(C(F)(F)F)cc1)COc1ccc2ccccc2c1 (stereo unspecified),-87.9,"18.4 µM [falling, partial curve]","10.3 µM [falling, partial curve]"
COC(=O)c1ccc(C(=O)OC)c(NC(=O)COC(=O)C2CC2C)c1 (stereo unspecified),40,"23.1 µM [rising, single point]",–
CCn1c(=N)n(CC(=O)C(C)(C)C)c2ccccc21,14.4,"1.46 µM [rising, partial curve]",–
COc1ccc(/C=C/C(=O)NNc2cc(=O)n(C)c(=O)n2C)cc1OC,-3.48,–,"16.4 µM [falling, partial curve]"
C#CCN1C(=O)C(O)(CC(=O)c2ccc(OC)c(OC)c2)c2ccccc21 (stereo unspecified),–,–,"8.2 µM [falling, partial curve]"
CC(C)OC(=O)c1cccc(C(=O)Nc2cccc(NC(=O)c3cccc(C(=O)OC(C)C)n3)n2)n1,-65.9,"20.6 µM [falling, single point]","18.4 µM [falling, single point]"
CCC(C(=O)Nc1ccccc1F)n1nc(C)c2c(C)n(-c3ccccc3)nc2c1=O (stereo unspecified),–,–,"6.51 µM [rising, single point]"

# Gathered by group: those above with a halogen.
Compound,cell number change [%],AC50 [1],AC50 [2]
Cn1c(CO)cnc1SCC(=O)c1ccc(Cl)cc1,-21.9,–,–
O=C(c1ccco1)n1nc(-c2ccc(Cl)cc2)nc1NCc1ccco1,0.0174,–,"29.1 µM [rising, partial curve]"
O=c1c2[nH]cnc2n(-c2cccc(F)c2)c(=O)n1Cc1ccccc1,-5.56,–,–
Cc1cc(OCC(=O)Nc2ccc(S(=O)(=O)N3CCN(C)CC3)cc2)ccc1Br,11.6,–,–
COc1ccccc1C(=O)N1CCNC(=O)C1CC(=O)Nc1ccc(Cl)cc1 (stereo unspecified),–,–,"0.184 µM [falling, full curve, poor fit]"
O=C(O)Cc1ccc(OCc2ccc(Cl)nc2)cc1,3.08,"0.00517 µM [rising, full curve, poor fit]","0.00651 µM [rising, full curve, poor fit]"
O=S(=O)(c1cnc(Cl)c(Br)c1)N1CCCCCC1,-16.4,–,"29.1 µM [falling, partial curve, poor fit]"
Cc1cc(C)n2nc(SCc3ccccc3F)nc2n1,11.2,–,"2.91 µM [rising, partial curve, poor fit]"
CC(=O)Nc1cccn(Cc2c(Cl)cccc2Cl)c1=O,54.7,–,"0.092 µM [falling, full curve]"
CCn1cc(C(=O)O)c(=O)c2cc(F)c(N3CCN(C(=S)NC(=O)c4ccccc4Cl)CC3)cc21,58.2,"29.1 µM [rising, single point]",–
Cc1ccc2cccc(OCc3ccc(Br)cc3)c2n1,76.1,"4.61 µM [rising, full curve, poor fit]","5.17 µM [rising, full curve]"
CC(=O)Nc1ccc(Nc2nc(C)nc3c2nnn3Cc2ccccc2Cl)cc1,9.47,–,"6.51 µM [falling, partial curve, poor fit]"
CC(=O)N1c2ccc(S(=O)(=O)NCCC(=O)Nc3cccc(Cl)c3)cc2CC1C (stereo unspecified),-31.1,"18.4 µM [falling, single point]","6.51 µM [falling, single point]"
OC(CNCCc1ccc(C(F)(F)F)cc1)COc1ccc2ccccc2c1 (stereo unspecified),-87.9,"18.4 µM [falling, partial curve]","10.3 µM [falling, partial curve]"
CCC(C(=O)Nc1ccccc1F)n1nc(C)c2c(C)n(-c3ccccc3)nc2c1=O (stereo unspecified),–,–,"6.51 µM [rising, single point]"
